Results taken from PubChem BioAssay AID256 (DTP/NCI, 2004).
The list does not hold the whole screen: it is rich in T/C values a quarter to a half above the control, in often repeated tests (any T/C) and in doses without a T/C. Other doses and runs of a compound stand elsewhere. T/C gives the treated animals as a percentage of the vehicle group. Some entries give survivors of the animals treated and no T/C: the source files T/C as zero there, which appears to mark a toxic dose or a test without result, not a measured value. Some doses without a T/C left all or most animals alive at the check, yet need not have been tolerated: survival well below the control is almost never listed, so the zero probably covers shortened survival too. Survivors were counted at the toxicity check, usually on the fifth day, unless a day is given; later deaths do not show. Schedule codes are those of the source, taken here to give the interval after Q, in days (D) or hours (H), and the number of doses after X. Where survival is the endpoint, this PubChem deposit counts one and a half times the control or more as active, and values a quarter to a half above the control carry no call in these data; other NCI protocols may use other cut-offs. Some entries hold several experiments; the values are given in rising order. Some T/C values carry the count of animals alive at the toxicity check (mostly the fifth day); without a count, all were alive then.

Test system: CD2F1 mice, L1210 leukemia ip, survival T/C
Assay: NCI In Vivo Anticancer Drug Screen. Data for tumor model L1210 Leukemia (intraperitoneal) in CD2F1 (CDF1) mice
Details: higher T/C = longer survival
Method in brief: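 Compound-dosed mice with transplantable tumor versus matched vehicle controls; endpoint ratio T/C reported.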

[1] = T/C endpoint: mean survival time, dose: 25.0 mg/kg/injection, schedule: Q04DX003 (ip), vehicle: saline with Tween-80
[2] = T/C endpoint: mean survival time, dose: 100.0 mg/kg/injection, schedule: Q01DX009 (ip), vehicle: saline with Tween-80
[3] = T/C endpoint: mean survival time, dose: 100.0 mg/kg/injection, schedule: Q04DX003 (ip), vehicle: saline with Tween-80
[4] = T/C endpoint: mean survival time, dose: 200.0 mg/kg/injection, schedule: Q04DX003 (ip), vehicle: saline with Tween-80
[5] = T/C endpoint: mean survival time, dose: 400.0 mg/kg/injection, schedule: Q04DX003 (ip), vehicle: saline with Tween-80
[6] = T/C endpoint: mean survival time, dose: 200.0 mg/kg/injection, schedule: Q01DX009 (ip), vehicle: saline with Tween-80

Question: What does the source list for `CCCCn1cnc2c(=S)nc(N)[nH]c21`?
Answer: T/C [1]: 145 % of control; T/C (T/C endpoint: mean survival time, dose: 33.0 mg/kg/injection, schedule: Q04DX003 (ip), vehicle: saline with Tween-80): 143 % of control; T/C (T/C endpoint: mean survival time, dose: 50.0 mg/kg/injection, schedule: Q04DX003 (ip), vehicle: saline with Tween-80): 145 % of control; T/C (T/C endpoint: mean survival time, dose: 75.0 mg/kg/injection, schedule: Q04DX003 (ip), vehicle: saline with Tween-80): 130 % of control; T/C [2]: 138 % of control; T/C [3]: 140 % of control

Question: Which survivor count [3] does the source give for `CC(=O)NCC(C)CCC1OC2CC3C4CC=C5CC(OC(C)=O)CCC5(C)C4CCC3(C)C2C1C` (centres undefined) here?
Answer: 5 of 6

Question: What about the survivor count [4] of the same compound?
Answer: 0 of 6

Question: And the survivor count [5]?
Answer: 0 of 6

Question: With `CC(O)Cc1c(Cc2ccccc2)nc(-c2ccccc2)[nH]c1=O` (centres undefined) as the compound, how does the survivor count [6] read?
Answer: 6 of 6

Question: With `Cc1cn([C@@H]2C[C@H](CO)[C@@H](O)C2)c(=O)[nH]c1=O` as the compound, how does the T/C (T/C endpoint: mean survival time, dose: 250.0 mg/kg/injection, schedule: Q01DX009 (ip), vehicle: saline) read?
Answer: 126 % of control

Question: And the T/C (T/C endpoint: mean survival time, dose: 300.0 mg/kg/injection, schedule: Q01DX009 (ip), vehicle: saline)?
Answer: 129 and 132 % of control

Question: With `O=C(NCCCCCCCCCCNC(=O)Nc1ccc(C2=NCCCN2)cc1)Nc1ccc(C2=NCCCN2)cc1` as the compound, how does the T/C (T/C endpoint: mean survival time, dose: 12.0 mg/kg/injection, schedule: Q01DX009 (ip), vehicle: saline) read?
Answer: 130 % of control

Question: And the survivor count (T/C endpoint: mean survival time, dose: 29.0 mg/kg/injection, schedule: Q01DX009 (ip), vehicle: saline)?
Answer: 0 of 6

Question: Which T/C (T/C endpoint: median survival time, dose: 1.56 mg/kg/injection, schedule: Q01DX009 (ip), vehicle: saline + alcohol) does the source give for `O=C1N[C@H]2[C@H](O)[C@H](O)[C@@H](O)[C@H](O)[C@@H]2c2cc3c(c(O)c21)OCO3` here?
Answer: 131 % of control

Question: And the T/C (T/C endpoint: median survival time, dose: 3.0 mg/kg/injection, schedule: Q01DX009 (ip), vehicle: saline + alcohol)?
Answer: 133 % of control

Question: What about the T/C (T/C endpoint: median survival time, dose: 3.12 mg/kg/injection, schedule: Q01DX009 (ip), vehicle: saline + alcohol) of the same compound?
Answer: 131 % of control

Question: And the survivor count (T/C endpoint: median survival time, dose: 6.0 mg/kg/injection, schedule: Q01DX009 (ip), vehicle: saline + alcohol)?
Answer: 3 of 6

Question: And the survivor count (T/C endpoint: median survival time, dose: 6.25 mg/kg/injection, schedule: Q01DX009 (ip), vehicle: saline + alcohol)?
Answer: 0 of 6

Question: What about the survivor count (T/C endpoint: median survival time, dose: 12.5 mg/kg/injection, schedule: Q01DX009 (ip), vehicle: saline + alcohol) of the same compound?
Answer: 0 of 6

Question: What about the survivor count (T/C endpoint: median survival time, dose: 25.0 mg/kg/injection, schedule: Q01DX009 (ip), vehicle: saline + alcohol) of the same compound?
Answer: 0 of 6

Question: For `CN(C)CN1C(=O)S/C(=C2\C(=O)N(CN(C)C)c3ccccc32)C1=O`, which survivor count (T/C endpoint: median survival time, dose: 400.0 mg/kg/injection, schedule: Q01DX005 (ip), vehicle: Klucel (hydroxypropylcellulose) (HPC)) is on record?
Answer: 2 of 6

Question: For `COC1=CC23CCCN2CCc2cc4c(cc2C3C1O)OCO4` (centres undefined), which survivor count (T/C endpoint: mean survival time, dose: 400.0 mg/kg/injection, schedule: Q01DX009 (ip), vehicle: water) is on record?
Answer: 0 of 6

Question: Which results are given for `O=C(NC(=O)c1cn(C2OC(CO)C(O)C2O)nn1)Nc1ccc(Cl)cc1` (centres undefined)?
Answer: survivor count (T/C endpoint: mean survival time, dose: 25.0 mg/kg/injection, schedule: Q01DX005 (ip), vehicle: other): 6 of 6; survivor count (T/C endpoint: mean survival time, dose: 100.0 mg/kg/injection, schedule: Q01DX005 (ip), vehicle: other): 3 of 6; survivor count (T/C endpoint: mean survival time, dose: 200.0 mg/kg/injection, schedule: Q01DX005 (ip), vehicle: other): 0 of 6

Question: Which results are given for `CC1(C)N=C(N)N=C(N)N1c1ccc(OCCCCNC(=O)c2ccc(S(=O)(=O)F)cc2)c(Cl)c1`?
Answer: T/C [2]: 128 % of control [5 of 6 alive]; survivor count [2]: 2 of 6; survivor count [6]: 2 of 6

Question: For `O=C1C(Cl)=CC(=NS(=O)(=O)c2ccccc2)C=C1Cl`, which survivor count [3] is on record?
Answer: 0 of 6

Question: And the survivor count [4]?
Answer: 0 of 6

Question: What about the survivor count [5] of the same compound?
Answer: 0 of 6

Question: With `Cc1cc(Cc2ccc(N=C=O)c(C)c2)ccc1N=C=O` as the compound, how does the survivor count [2] read?
Answer: 6 of 6

Question: With `CCCCCCCCCCCCCCC[N+]1(C)CCSCC1` as the compound, how does the survivor count (T/C endpoint: mean survival time, dose: 100.0 mg/kg/injection, schedule: Q01DX001 (ip), vehicle: saline with Tween-80) read?
Answer: 1 of 6

Question: For `CN(C)CCC(=O)c1ccc2ccccc2c1`, which survivor count (T/C endpoint: mean survival time, dose: 75.0 mg/kg/injection, schedule: Q01DX001 (ip), vehicle: saline) is on record?
Answer: 0 of 6

Question: What about the survivor count (T/C endpoint: mean survival time, dose: 150.0 mg/kg/injection, schedule: Q01DX001 (ip), vehicle: saline) of the same compound?
Answer: 0 of 6

Question: What about the survivor count (T/C endpoint: mean survival time, dose: 300.0 mg/kg/injection, schedule: Q01DX001 (ip), vehicle: saline) of the same compound?
Answer: 0 of 6

Question: `Cc1c(O)c2c(c(O)c1Cc1cccc(C#N)c1)C(=O)c1ccccc1C2=O` was tested. Which survivor count (T/C endpoint: mean survival time, dose: 100.0 mg/kg/injection, schedule: Q01DX009 (ip), vehicle: Klucel (hydroxypropylcellulose) (HPC)) did it give?
Answer: 6 of 6

Question: Which results are given for `CC(C)NCC1CC2c3cccc4[nH]cc(c34)CC2N(C)C1` (centres undefined)?
Answer: survivor count (T/C endpoint: median survival time, dose: 100.0 mg/kg/injection, schedule: Q04DX003 (ip), vehicle: saline with Tween-80): 1 of 3; survivor count (T/C endpoint: median survival time, dose: 200.0 mg/kg/injection, schedule: Q04DX003 (ip), vehicle: saline with Tween-80): 0 of 3

Question: How did the survivor count [1] turn out when `CCCCCCCCCCCCCCCCCCNC(=O)C[N+](C)(C)Cc1ccccc1` was run?
Answer: 6 of 6

Question: And the survivor count [3]?
Answer: 6 of 6

Question: And the survivor count [4]?
Answer: 3 of 6

Question: What about the survivor count [5] of the same compound?
Answer: 0 of 6

Question: `O=S(=O)(F)c1ccc(Cl)c(Cl)c1S` was tested. Which survivor count (T/C endpoint: mean survival time, dose: 400.0 mg/kg/injection, schedule: Q04DX002 (ip), vehicle: saline with Tween-80) did it give?
Answer: 0 of 3

Question: `c1ccc(C[Se]Cc2ccccc2)cc1` was tested. Which survivor count (T/C endpoint: mean survival time, dose: 25.0 mg/kg/injection, schedule: Q01DX009 (ip), vehicle: other) did it give?
Answer: 0 of 6

Question: What about the survivor count (T/C endpoint: mean survival time, dose: 50.0 mg/kg/injection, schedule: Q01DX009 (ip), vehicle: other) of the same compound?
Answer: 0 of 6

Question: And the survivor count (T/C endpoint: mean survival time, dose: 100.0 mg/kg/injection, schedule: Q01DX009 (ip), vehicle: other)?
Answer: 0 of 6

Question: What about the survivor count (T/C endpoint: mean survival time, dose: 100.0 mg/kg/injection, schedule: Q04DX003 (ip), vehicle: other) of the same compound?
Answer: 0 of 6
